Data from PMC4366210.
Results are given in words; binding and its absence hold for the method and conditions named. Binding seen in cells or lysates may run through a third protein. Some binding calls cover weakened binding; strength is not graded here.

Protein sequences, listed by entry. Tags and fused reporters are not part of them. Lines headed by an entry give the natural chain unless they say otherwise; changes in a name come on top. Chains listed by the source or under a name are the forms on record and can include a tag or linker.
UniProt Q86WV6: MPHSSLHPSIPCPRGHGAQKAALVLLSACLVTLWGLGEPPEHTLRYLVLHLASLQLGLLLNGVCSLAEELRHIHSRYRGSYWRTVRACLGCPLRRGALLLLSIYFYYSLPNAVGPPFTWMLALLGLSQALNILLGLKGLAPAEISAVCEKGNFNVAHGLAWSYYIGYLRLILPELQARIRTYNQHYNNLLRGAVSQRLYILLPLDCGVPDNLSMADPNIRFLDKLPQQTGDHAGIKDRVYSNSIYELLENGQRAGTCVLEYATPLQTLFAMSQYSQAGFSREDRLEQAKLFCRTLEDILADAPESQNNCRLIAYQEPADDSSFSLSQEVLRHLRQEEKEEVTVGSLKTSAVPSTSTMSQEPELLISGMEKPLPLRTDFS
STING R284M mutant, AU1-tagged (Q86WV6, form named): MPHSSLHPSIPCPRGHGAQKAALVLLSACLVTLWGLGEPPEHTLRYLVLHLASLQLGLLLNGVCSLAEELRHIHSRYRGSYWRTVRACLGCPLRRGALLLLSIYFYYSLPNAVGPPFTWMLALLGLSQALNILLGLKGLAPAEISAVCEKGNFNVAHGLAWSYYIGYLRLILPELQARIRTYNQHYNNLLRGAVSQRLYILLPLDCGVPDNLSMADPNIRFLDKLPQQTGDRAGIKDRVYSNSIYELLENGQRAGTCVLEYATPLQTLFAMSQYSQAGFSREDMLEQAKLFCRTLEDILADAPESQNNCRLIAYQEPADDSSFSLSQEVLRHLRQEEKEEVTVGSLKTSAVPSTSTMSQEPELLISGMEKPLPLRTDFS
STING L374A mutant, AU1-tagged (Q86WV6, form named): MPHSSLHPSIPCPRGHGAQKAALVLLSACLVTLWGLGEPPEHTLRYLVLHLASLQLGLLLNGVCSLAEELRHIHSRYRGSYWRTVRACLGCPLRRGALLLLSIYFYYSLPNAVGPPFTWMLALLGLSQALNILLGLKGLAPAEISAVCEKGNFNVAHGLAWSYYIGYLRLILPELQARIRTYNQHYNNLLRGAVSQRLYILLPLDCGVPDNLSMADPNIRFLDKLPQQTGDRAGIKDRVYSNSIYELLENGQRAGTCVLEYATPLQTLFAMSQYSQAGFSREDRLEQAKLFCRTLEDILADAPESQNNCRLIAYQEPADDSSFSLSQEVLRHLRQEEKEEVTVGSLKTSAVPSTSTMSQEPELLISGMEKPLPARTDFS
wild-type STING (stimulator of IFN genes), AU1-tagged, Arg 232 allele (Q86WV6, form named): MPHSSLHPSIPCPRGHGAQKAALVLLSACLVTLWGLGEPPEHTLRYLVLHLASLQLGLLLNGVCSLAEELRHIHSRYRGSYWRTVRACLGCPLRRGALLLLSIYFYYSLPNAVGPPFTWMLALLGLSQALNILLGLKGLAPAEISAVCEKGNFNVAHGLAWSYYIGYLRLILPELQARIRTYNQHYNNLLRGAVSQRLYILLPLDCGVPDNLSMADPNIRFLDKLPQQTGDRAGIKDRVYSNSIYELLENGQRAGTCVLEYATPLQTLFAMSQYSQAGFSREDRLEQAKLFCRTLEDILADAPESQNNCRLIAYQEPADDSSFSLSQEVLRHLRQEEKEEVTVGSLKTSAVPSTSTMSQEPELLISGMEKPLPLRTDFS

Legend:
Assay in all cases: co-IP; anti-AU1 immunoprecipitates from HEK293T cells transfected with AU1-tagged STING, lysed 20 hrs after transfection in CHAPS lysis buffer (40mM Hepes pH 7.4, 0.3% CHAPS); 4°C; blot for endogenous TBK1
[1] = target: STING R284M mutant, AU1-tagged (human) (UniProt Q86WV6)
[2] = target: STING L374A mutant, AU1-tagged (human) (UniProt Q86WV6)
[3] = target: wild-type STING (stimulator of IFN genes), AU1-tagged, Arg 232 allele (human) (UniProt Q86WV6)

B1: TBK1 (enzyme, UniProt Q9UHD2 1-729)
chain: MQSTSNHLWLLSDILGQGATANVFRGRHKKTGDLFAIKVFNNISFLRPVDVQMREFEVLKKLNHKNIVKLFAIEEETTTRHKVLIMEFCPCGSLYTVLEEPSNAYGLPESEFLIVLRDVVGGMNHLRENGIVHRDIKPGNIMRVIGEDGQSVYKLTDFGAARELEDDEQFVSLYGTEEYLHPDMYERAVLRKDHQKKYGATVDLWSIGVTFYHAATGSLPFRPFEGPRRNKEVMYKIITGKPSGAISGVQKAENGPIDWSGDMPVSCSLSRGLQVLLTPVLANILEADQEKCWGFDQFFAETSDILHRMVIHVFSLQQMTAHKIYIHSYNTATIFHELVYKQTKIISSNQELIYEGRRLVLEPGRLAQHFPKTTEENPIFVVSREPLNTIGLIYEKISLPKVHPRYDLDGDASMAKAITGVVCYACRIASTLLLYQELMRKGIRWLIELIKDDYNETVHKKTEVVITLDFCIRNIEKTVKVYEKLMKINLEAAELGEISDIHTKLLRLSSSQGTIETSLQDIDSRLSPGGSLADAWAHQEGTHPKDRNVEKLQVLLNCMTEIYYQFKKDKAERRLAYNEEQIHKFDKQKLYYHATKAMTHFTDECVKKYEAFLNKSEEWIRKMLHLRKQLLSLTNQCFDIEEEVSKYQEYTNELQETLPQKMFTASSGIKHTMTPIYPSSNTLVEMTLGMKKLKEEMEGVVKELAENNHILERFGSLTMDGGLRNVDCL
binding [1]: binds
binding [2]: no binding
binding [3]: binds weakly
